PubChem BioAssay AID504744, Drosophila RNAi Screening Center – 2011

- Purpose: 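Find genes whose loss alters insulin-driven dAkt phosphorylation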 (primary screen)
- Cells: Drosophila Kc167 cells
- Reagent: long dsRNA against Drosophila genes, 250 ng dsRNA per well of a 384-well plate
- Duration: 3 days of knock-down, then overnight serum-free starvation before stimulation
- Treatment: bovine insulin at 387 nM for 10 minutes after 12 h without serum
- Detection: 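In-cell antibody fluorescence for phospho-dAkt in each well over DNA-dye signal, with log2 residuals expressed as z-scores adjusted for cell count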
- Rule for the call: 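Under insulin, a gene counts as a hit if the average z-score of two replicates lies above 2.5 or below -2.5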
In all, the deposit lists about 23,000 reagents; shown is an unselected part of those with a known target gene and a result. In the full data, 98 (0.43%) were called active. 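Only hit calls are given; the phospho-dAkt signals, z-scores and hit direction were not deposited.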 Names joined by + are all predicted targets of the reagent.

gene	DRSC id	Call
GstO1	DRSC10688	inactive
Axn	DRSC14120	inactive
CG18557	DRSC00524	inactive
vg	DRSC07715	inactive
vg	DRSC22669	inactive
Rack1	DRSC03405	inactive
TfIIFalpha	DRSC12608	inactive
CG8366	DRSC07153	inactive
Mob2	DRSC09117	inactive
Mob2	DRSC09119	inactive
Mob2	DRSC09856	inactive
CG12481	DRSC19461	inactive
CtsL4	DRSC02849	inactive
JhI-21	DRSC02161	inactive
CG33181	DRSC17971	inactive
CG33181	DRSC22376	inactive
CG9503	DRSC20186	inactive
CG9503	DRSC21766	inactive
CG5681	DRSC02876	inactive
CG30054	DRSC05354	inactive
CG1965	DRSC12577	inactive
CG1965	DRSC21828	inactive
Uch	DRSC00797	inactive
Acp32CD	DRSC01858	inactive
CG31326	DRSC16532	inactive
Prdm13	DRSC09970	inactive
CG4849	DRSC15662	inactive
CG15728	DRSC19694	inactive
CG15728	DRSC22868	inactive
CG31274 + MESK4	DRSC13202	inactive
Kebab	DRSC00827	inactive
Zasp66	DRSC08932	inactive
Zasp66	DRSC10631	inactive
Zasp66	DRSC10632	inactive
Nmda1	DRSC07479	inactive
Amun	DRSC19847	inactive
CG6418	DRSC10633	inactive
Np	DRSC06089	inactive
Np	DRSC07094	inactive
Np	DRSC22421	inactive
Cyp312a1	DRSC11128	inactive
CG7220	DRSC05235	inactive
CG7220	DRSC07018	inactive
CG7382	DRSC03052	inactive
mRpL11	DRSC15482	inactive
St2	DRSC15142	inactive
St2	DRSC22624	inactive
Ugt316A1	DRSC10376	inactive
CG17801	DRSC15273	inactive
Sox21a	DRSC10819	inactive
CG11379	DRSC18629	inactive
NAT1	DRSC06854	inactive
ppk10	DRSC01123	inactive
CG2200	DRSC19840	inactive
prel	DRSC07271	inactive
MED26	DRSC17126	inactive
MED26	DRSC17147	inactive
MED26	DRSC17148	inactive
CG18179	DRSC10303	inactive
Nup133	DRSC16150	active
CG18547	DRSC15345	inactive
LysRS	DRSC17824	inactive
CG14036	DRSC02361	inactive
CG5084	DRSC06913	inactive
CG15561	DRSC15100	inactive
Tep1	DRSC03450	inactive
cv-d	DRSC16522	inactive
cv-d	DRSC16524	inactive
cv-d	DRSC16526	inactive
CG32102	DRSC22015	inactive
RhoGEF64C	DRSC08318	inactive
RhoGEF64C	DRSC08319	inactive
CG6700	DRSC02980	inactive
BomT2	DRSC06631	inactive
btd	DRSC18747	inactive
sit	DRSC15760	inactive
Nelf-A	DRSC15903	inactive
hng2	DRSC16412	inactive
Nemp	DRSC20206	inactive
CG12182	DRSC08142	inactive
beta4GalT7	DRSC14385	inactive
CG42717	DRSC09411	inactive
Dph4	DRSC12318	inactive
CG6435	DRSC06987	inactive
CG8249	DRSC07125	inactive
Tsp42El	DRSC06186	inactive
yellow-e	DRSC12966	inactive
yellow-e	DRSC16563	inactive
mAChR-C	DRSC17890	inactive
eIF6	DRSC04674	inactive
stac	DRSC13693	inactive
stac	DRSC14392	inactive
stac	DRSC22197	inactive
Qsox4	DRSC14224	inactive
hoip	DRSC03546	inactive
CG31089	DRSC15934	inactive
sle + CG12592	DRSC21387	inactive
dgt3	DRSC04349	inactive
Tim13	DRSC09848	inactive
cg	DRSC07650	inactive
VAChT + ChAT	DRSC13312	inactive
uif	DRSC00963	inactive
uif	DRSC03427	inactive
CG6055	DRSC02923	inactive
gzl	DRSC12517	inactive
CG42821 + CG42822	DRSC13231	inactive
CG42821 + CG42822	DRSC13232	inactive
Synj	DRSC04526	inactive
Mst84Dc	DRSC12599	inactive
CG14109	DRSC10112	inactive
CG42697	DRSC05740	inactive
Hers + amn	DRSC20306	inactive
CG42686 (retired record)	DRSC15247	inactive
CG42686 (retired record)	DRSC15248	inactive
CG1979	DRSC12495	inactive
CG4960	DRSC15684	inactive
mahe	DRSC17755	inactive
CG12546	DRSC11676	inactive
nis	DRSC00290	inactive
Sbat	DRSC00160	inactive
dob	DRSC19948	inactive
CG9265	DRSC03178	inactive
CG9265	DRSC03179	inactive
Psf3	DRSC18216	inactive
Psf3	DRSC21487	inactive
CG3224	DRSC18295	inactive
D12	DRSC03311	inactive
CG18577	DRSC15352	inactive
CG7536	DRSC20050	inactive
Ndg	DRSC06223	inactive
CG31806	DRSC02787	inactive
CG34129	DRSC15960	inactive
vtd	DRSC20839	inactive
CG34169	DRSC01579	inactive
Tti1	DRSC15163	inactive
CG8136	DRSC16385	inactive
Cpr92F	DRSC15819	inactive
Or67a	DRSC11240	inactive
side-VII	DRSC14578	inactive
CG7884	DRSC20065	inactive
CG17821	DRSC06696	inactive
CG31445	DRSC14443	inactive
CG11050	DRSC02125	inactive
CG31365	DRSC15610	inactive
CG15432	DRSC00447	inactive
CycB3	DRSC16618	inactive
Nrt	DRSC11237	inactive
TwdlD	DRSC14738	inactive
bdwf	DRSC15532	inactive
CG12861	DRSC06201	inactive
CG12861	DRSC21960	inactive
CG14591	DRSC04868	inactive
CG5217	DRSC15740	inactive
Eig71Ec	DRSC11150	inactive
CG15721	DRSC19688	inactive
Targ	DRSC06206	inactive
Pcmt	DRSC12363	inactive
CG11380	DRSC18632	inactive
Oatp58Db	DRSC04364	inactive
CG13965	DRSC02307	inactive
nAChRbeta3	DRSC00325	inactive
CG30416	DRSC04565	inactive
CG17270	DRSC15209	inactive
CG2070	DRSC06814	inactive
CG18336	DRSC06334	inactive
CG5013	DRSC15695	inactive
Est-6	DRSC11162	inactive
CG11755	DRSC14374	inactive
CG1792	DRSC15290	inactive
CG13907	DRSC08377	inactive
Dhc62B	DRSC08655	inactive
CG11905	DRSC09863	inactive
CG6071	DRSC10579	inactive
CG4582	DRSC15605	inactive
CG34198	DRSC05803	inactive
CG16743	DRSC02514	inactive
prg	DRSC03324	inactive
Tim17b1	DRSC12179	inactive
ORY	DRSC22883	inactive
Obp57c	DRSC06384	inactive
t-cup	DRSC01254	inactive
Dpck	DRSC12575	inactive
Su(var)205	DRSC03446	inactive
abs	DRSC12372	inactive
CG13544	DRSC04186	inactive
Pdss2	DRSC11625	inactive
CG13308	DRSC09979	inactive
rux	DRSC18829	inactive
CG9897 + asRNA:CR42742	DRSC04595	inactive
zuc	DRSC02160	inactive
CG30324	DRSC22655	inactive
Art1	DRSC16063	inactive
Gem2	DRSC09721	inactive
hiro	DRSC08564	inactive
Atg1	DRSC09809	inactive
Atg1	DRSC09810	inactive
CG13133	DRSC02230	inactive
CG5290	DRSC10501	inactive
CG9269	DRSC16465	inactive
Mvb12	DRSC20027	inactive
